In patent US20190077860A1:
Positions count from the first letter of the chain named. These are yes or no findings as the source states them, for the method shown. Some results given as binding are weak or reduced against the parent protein; the word gives no strength.

Chains of the proteins cited; added tags and fusions are not shown. Residues count along the entry.
UniProt P54764, residues 29-209: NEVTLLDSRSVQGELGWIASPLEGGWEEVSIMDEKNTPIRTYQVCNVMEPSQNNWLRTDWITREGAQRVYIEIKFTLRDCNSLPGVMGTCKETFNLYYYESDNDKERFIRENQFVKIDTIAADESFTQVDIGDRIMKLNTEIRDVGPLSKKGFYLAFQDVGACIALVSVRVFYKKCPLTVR

B1: humanized antibody No. 156 (antibody, human IgG2)
heavy: QIQLVQSGSELKKPGASVKVSCKASGYTFTDYSMHWVRQAPGQGLKWMGWINTETGEPTYAQGFTGRFVFSLDTSVSTAYLQISSLKAEDTAVYYCARIPLYYYGSRYWYFDVWGQGTTVTVSSASTKGPSVFPLAPSSRSTSESTAALGCLVKDYFPEPVTVSWNSGALTSGVHTFPAVLQSSGLYSLSSVVTVPSSNFGTQTYTCNVDHKPSNTKVDKTVERKSCVECPPCPAPPAAAPSVFLFPPKPKDTLMISRTPEVTCVVVDVSHEDPEVQFNWYVDGVEVHNAKTKPREEQFNSTFRVVSVLTVVHQDWLNGKEYKCKVSNKGLPAPIEKTISKTKGQPREPQVYTLPPSREEMTKNQVSLTCLVKGFYPSDIAVEWESNGQPENNYKTTPPMLDSDGSFFLYSKLTVDKSRWQQGNVFSCSVMHEALHNHYTQKSLSLSPG
light: DIQMTQSPSSLSASVGDRVTITCRASENIYRNLAWYQQKPGKAPQLLLYAATNLADGVPSRFSGSGSGTDYTLTISSLQPEDFATYYCQHFWGTPWTFGQGTKVEIKRTVAAPSVFIFPPSDEQLKSGTASVVCLLNNFYPREAKVQWKVDNALQSGNSQESVTEQDSKDSTYSLSSTLTLSKADYEKHKVYACEVTHQGLSSPVTKSFNRGEC
B2: humanized antibody No. 136 (antibody, human IgG2)
heavy: B1 heavy with I2V, Q62D, G63D, T65K
light: EIVMTQSPATLSVSPGERATLSCRASENIYRNLAWYQQKPGQSPRLLIYAATNLADGIPARFSGSGSGTEYTLTISSLQSEDFAVYYCQHFWGTPWTFGQGTKVEIKRTVAAPSVFIFPPSDEQLKSGTASVVCLLNNFYPREAKVQWKVDNALQSGNSQESVTEQDSKDSTYSLSSTLTLSKADYEKHKVYACEVTHQGLSSPVTKSFNRGEC
B3: antibody A-Fab (Fab, V domains shown, not shown: a dimerising Fc or GST)
VH: QIQLVQSGPELKKPGETVKISCKASGYTFTDYSMHWVKQAPGKGLKWMGWINTETGEPTYADDFKGRFAFSLETSASTAYLQINNLKNEDTATYFCARIPLYYYGSRYWYFDVWGAGTTVTVSS
VL: DIQMTQSPASLSVSVGETVTITCRASENIYRNLAWYQQKQGKSPQLLVYAATNLADGVPSRFSGSGSGTQYSLKINSLQSEDFGSYYCQHFWGTPWTFGGGTKLEIKR

Columns and labels:
[1] = target: human EphA4 extracellular region-SEAP-His protein (human) (UniProt P54764); assay: ELISA
[2] = target: human EphA4 extracellular region-SEAP-His protein (human) (UniProt P54764); assay: SPR
[3] = target: EphA4 Ligand-Binding Domain (EphA4-LBD) (UniProt P54764); assay: complex purified by gel filtration and crystallized

Row | Binder | binding [1] | binding [2] | binding [3]
1 | B1 | binds | binds | –
2 | B2 | binds | binds | –
3 | B3 | – | – | binds
